Experimental data as given in paper PMC7840974.
No constants are given. Whether binding was seen depends on the method and setting. Binding seen in cells or lysates may run through a third protein. Some binding calls cover weakened binding; strength is not graded here.

By UniProt entry, the sequences of proteins in these tests, tags left out.
UniProt P25490: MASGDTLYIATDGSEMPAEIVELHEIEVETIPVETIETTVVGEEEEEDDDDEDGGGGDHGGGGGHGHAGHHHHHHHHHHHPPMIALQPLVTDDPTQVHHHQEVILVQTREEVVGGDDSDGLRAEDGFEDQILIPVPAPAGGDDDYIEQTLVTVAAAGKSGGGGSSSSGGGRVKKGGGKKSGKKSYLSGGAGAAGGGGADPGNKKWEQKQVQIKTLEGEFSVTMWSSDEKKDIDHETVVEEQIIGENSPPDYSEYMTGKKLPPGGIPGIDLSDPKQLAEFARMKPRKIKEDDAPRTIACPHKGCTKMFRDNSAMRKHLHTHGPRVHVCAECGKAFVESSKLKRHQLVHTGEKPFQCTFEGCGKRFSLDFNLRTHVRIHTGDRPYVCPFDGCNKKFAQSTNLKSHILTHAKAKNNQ

Molecular target: T1, HELLS (human (endogenous in TLBR-2 and MAC2A)) (UniProt Q9NRZ9)
T1 sequence: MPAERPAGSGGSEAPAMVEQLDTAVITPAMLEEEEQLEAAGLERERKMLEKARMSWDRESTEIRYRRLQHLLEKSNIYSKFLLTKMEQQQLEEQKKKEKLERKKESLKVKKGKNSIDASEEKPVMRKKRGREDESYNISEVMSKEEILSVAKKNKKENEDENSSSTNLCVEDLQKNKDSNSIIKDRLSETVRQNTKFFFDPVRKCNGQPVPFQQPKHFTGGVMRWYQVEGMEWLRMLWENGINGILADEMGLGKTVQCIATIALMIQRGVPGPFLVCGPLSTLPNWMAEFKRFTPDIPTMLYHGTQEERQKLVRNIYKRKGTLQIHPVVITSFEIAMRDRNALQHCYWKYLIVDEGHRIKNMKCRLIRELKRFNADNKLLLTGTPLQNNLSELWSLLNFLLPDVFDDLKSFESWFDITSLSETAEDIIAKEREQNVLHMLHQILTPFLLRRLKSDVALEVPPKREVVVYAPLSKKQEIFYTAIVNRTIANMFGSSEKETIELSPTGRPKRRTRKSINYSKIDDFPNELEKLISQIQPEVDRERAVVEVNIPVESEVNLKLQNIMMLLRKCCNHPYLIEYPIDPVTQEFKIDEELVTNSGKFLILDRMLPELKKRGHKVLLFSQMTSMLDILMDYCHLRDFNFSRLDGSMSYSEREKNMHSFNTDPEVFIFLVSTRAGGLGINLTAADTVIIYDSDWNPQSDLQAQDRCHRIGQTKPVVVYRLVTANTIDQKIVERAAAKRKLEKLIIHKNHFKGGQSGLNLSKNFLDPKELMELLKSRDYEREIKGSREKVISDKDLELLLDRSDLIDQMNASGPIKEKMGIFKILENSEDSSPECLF
Assay: co-IP; nuclear extracts (4 mg) of TLBR-2 and MAC2A cells crosslinked with 1% formaldehyde; immunoprecipitation with HELLS antibody on Protein A-Sepharose, overnight 4 °C; washes in TBS (50 mM Tris-HCl pH 7.4, 150 mM NaCl); detection by western blot

binding: binds
Substance: Yin Yang 1 (YY1) (from UniProt P25490 1-414)
